Measurements taken from PubChem BioAssay AID2685 (National Center for Advancing Translational Sciences (NCATS), 2010).
About 2,100 (0.66%) of roughly 320,000 compounds were called active. Inconclusive means that the source gave no clear call. Such entries were picked first, then a sample of the others. Calls come from the whole dose curve; as a rule, active = well fitted inhibition curve with a large enough effect in the signal ratio, with a control signal flat (not every such curve was filed as active); inconclusive = small, poorly fitted or top-dose-only effect, or effect the other way, or a change in a side signal; inactive = flat fitted curve, though single readings scatter; the % refers to the signal ratio. Potencies beside an inconclusive call are fits to weak or partial responses and may not hold up.
% is set by controls: 0 for no effect and ±100 for the full control effect; potency is the fitted concentration of half-maximal effect.

Experiment: qHTS Assay for Lipid Storage Modulators in Drosophila S3 Cells
Details: BODIPY lipid droplet fluorescence, 18-24 h, cells fed with added oleic acid; lipid storage change, negative = inhibition: at 46.1 µM (top of the series) unless noted
Summary of the method: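 Laser-scanning cytometry quantifies lipid droplet accumulation (500–530 nm total intensity; droplet/cell object ratio) in oleic acid-fed (400 uM added) Drosophila S3 cells treated with a concentration series. 20 uM Triacsin C defined 100% inhibition.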
With `O=C(N/C(=C\c1ccc(-c2ccccc2)o1)C(=O)N1CCOCC1)c1ccccc1` the lipid storage change, negative = inhibition was inconclusive: 10%. For `CC1Sc2ccc(S(=O)(=O)CCC(=O)N3CCN(c4ccccc4)CC3)cc2NC1=O` (configuration not stated), the Potency was inconclusive: 16.4 µM [activator, partial curve]. In the case of `O=S(=O)(c1ccc(Br)cc1)N1CCC(c2nc3ccccc3[nH]2)CC1`, the Potency is reported as inconclusive: 5.17 µM [activator, single point]. With `COc1cccc(NC(=O)C(Cc2ccccc2)NC(=O)C2CCC(C)CC2)c1` (configuration not stated) the lipid storage change, negative = inhibition was inconclusive: 34.4%. With `CCCSc1nsc(SCCC)c1C#N` the lipid storage change, negative = inhibition was inconclusive: 1.85%. In the case of `COc1ccc(OC)c(NC(=O)CN2C(=O)NC(C)(c3ccc4c(c3)OCCO4)C2=O)c1` (configuration not stated), the Potency is reported as inconclusive: 0.082 µM [falling, full curve, poor fit]. With `O=C(CN(c1ccccc1)S(=O)(=O)c1ccccc1)N/N=C/c1ccco1` the lipid storage change, negative = inhibition was “inactive”. In the case of `CC1CCN(CC(CS(=O)(=O)c2ccc([N+](=O)[O-])cc2)N2CCC(C)CC2)CC1` (configuration not stated), the lipid storage change, negative = inhibition is reported as inconclusive: -13.1%. With `COc1ccc(C(=O)Nc2c(C)ccc3nsnc23)cc1[N+](=O)[O-]` the lipid storage change, negative = inhibition was inconclusive: 21.8%. In the case of `CN(CC(=O)Nc1ccc(Cl)c(S(=O)(=O)N(C)C)c1)Cc1ccccc1`, the lipid storage change, negative = inhibition is reported as inconclusive: 8.83%. With `Cc1ccc(OCCNC(=O)c2ccccc2OCc2c(C)noc2C)cc1` the lipid storage change, negative = inhibition was inconclusive: 8.62%. With `O=c1cc(-c2ccc(O)cc2)oc2ccccc12` the lipid storage change, negative = inhibition was inconclusive: -17.7%. With `N#CC1=C(N)OC2=C(CC/C2=C\c2ccccc2Cl)C1c1ccccc1Cl` (configuration not stated) the Potency was inconclusive: 16.4 µM [falling, partial curve]. In the case of `CC(=O)C1=C(O)C(=O)N(c2ccc(O)cc2)C1c1ccc(Cl)cc1` (configuration not stated), the lipid storage change, negative = inhibition is reported as inconclusive: 73.1%. With `Cc1ccc(OCC(=O)NC(C)c2ccc(Cl)c(Cl)c2)c([N+](=O)[O-])n1` (configuration not stated) the Potency was inconclusive: 2.31 µM [activator, single point]. In the case of `ClC1=C(Cl)C(Cl)=C(Cl)C1=C/C=C/c1ccccc1`, the lipid storage change, negative = inhibition is reported as inconclusive: -33.9%. For `COc1ccc(/C=C/CN2CCC(n3nccc3NC(=O)C3CCCC3)CC2)cc1`, the lipid storage change, negative = inhibition was inconclusive: 8.35%. With `CCOc1ccc2nc(NC(=O)Nc3cccs3)sc2c1` the lipid storage change, negative = inhibition was inconclusive: 14.8%. With `Cc1ccc(OCCC(=O)OC(C)C(=O)Nc2ccc(Cl)cn2)cc1` (configuration not stated) the lipid storage change, negative = inhibition was “inconclusive”. For `O=C(c1cccs1)N1CCCC(N2CCN(c3ccc(F)cc3)CC2)C1` (configuration not stated), the Potency was inconclusive: 20.6 µM [falling, partial curve]. For `Cc1cccc(S(=O)(=O)C(C#N)c2nc3ccccc3nc2N2CCOCC2)c1` (configuration not stated), the lipid storage change, negative = inhibition was inconclusive: 20.3%. For `CS(=O)(=O)Nc1ccc(C(=O)Nc2ccc(S(=O)(=O)N3CCCCC3)cc2)cc1`, the Potency was inconclusive: 29.1 µM [falling, single point]. In the case of `O=[N+]([O-])c1ccc(Sc2ccccc2)nc1`, the lipid storage change, negative = inhibition is reported as inconclusive: 4.92%. With `CCn1nc(C)c(Br)c1C(=O)Sc1ccccc1Cl` the lipid storage change, negative = inhibition was inconclusive: 2.56%. In the case of `Cc1noc(C)c1C(=O)N1CCN(S(=O)(=O)c2cccc(Cl)c2Cl)CC1`, the lipid storage change, negative = inhibition is reported as inconclusive: -22.8%. In the case of `O=C(c1cnc2n(c1=O)CCS2)N(c1ccccc1)C1CCCCC1`, the lipid storage change, negative = inhibition is reported as inconclusive: -24.5%. For `COc1ccc(CNC(=O)CCCSc2ccccc2)cc1`, the Potency was inconclusive: 29.1 µM [activator, single point]. In the case of `CN(C)c1cccc(C(=O)OCC(=O)Nc2nccs2)c1`, the lipid storage change, negative = inhibition is reported as inconclusive: 34.9%. For `O=C(NCCCN1CCOCC1)c1ccc(CS(=O)(=O)c2ccc(Br)cc2)o1`, the Potency was inconclusive: 1.46 µM [activator, partial curve]. For `CSC(C1CCCC1)n1nnc2ccccc21` (configuration not stated), the Potency was inconclusive: 29.1 µM [activator, single point]. In the case of `O=C(CS(=O)(=O)c1ccc(F)cc1)Nc1nccs1`, the lipid storage change, negative = inhibition is reported as inconclusive: 24.2%. With `CCn1c(=O)c(=O)[nH]c2cc(C(=O)N(C)Cc3ccc(OC)c(F)c3)ccc21` the Potency was inconclusive: 3.26 µM [activator, single point]. With `COc1cc2c(cc1OC)C(c1ccc(OC)c(OC)c1OC)CC(=O)N2` (configuration not stated) the lipid storage change, negative = inhibition was inconclusive: -19.5%. With `CN(CC(=O)Nc1cccc(F)c1)C(=O)c1cc(=O)[nH]c2ccccc12` the lipid storage change, negative = inhibition was “inactive”. For `COc1ccccc1NS(=O)(=O)c1cc(NC(=O)Nc2ccc(Cl)cc2Cl)ccc1N1CCCCC1`, the Potency was inconclusive: 25.9 µM [falling, single point]. For `CN(Cc1ccc(Br)s1)C(=O)CNC(=O)c1ccc2c(c1)OCO2`, the lipid storage change, negative = inhibition was inconclusive: 21%. For `COc1ccccc1NC(=O)CCn1c(=S)oc2ccccc21`, the lipid storage change, negative = inhibition was inconclusive: 31%. With `N#Cc1c(NC(=O)CSc2nc3ccccc3s2)sc2c1CCCC2` the Potency was inconclusive: 9.2 µM [rising, partial curve, poor fit]. With `CC(CNC(=O)C1CCCCC1C(=O)O)c1ccccc1` (configuration not stated) the lipid storage change, negative = inhibition was inconclusive: -178%. For `CC(C)Nc1ccc(C(CC(N)=O)NC(=O)Cc2ccc(Br)cc2)cc1[N+](=O)[O-]` (configuration not stated), the lipid storage change, negative = inhibition was inconclusive: 19%. For `CC(OC(=O)CCN1C(=O)C2CC=CCC2C1=O)C(=O)Nc1cccc(C#N)c1` (configuration not stated), the lipid storage change, negative = inhibition was “inconclusive”. For `CCCN(CC(=O)Nc1ccccc1OC)C(=O)CCC(=O)c1ccc(OCC)cc1`, the Potency was inconclusive: 29.1 µM [falling, single point]. For `O=C(Cc1cccs1)Nc1ccc(N2CCOCC2)cc1`, the lipid storage change, negative = inhibition was inconclusive: -31.2%. In the case of `COc1ccc(OC)c(S(=O)(=O)N(C)CC(=O)Nc2ccc3c(c2)OCO3)c1`, the Potency is reported as inconclusive: 0.731 µM [activator, partial curve]. For `CCN1C(=O)CC(NNC(=O)c2ccc(Cl)cc2)C1=O` (configuration not stated), the lipid storage change, negative = inhibition was inconclusive: -2.89%. For `O=C1CC(Cc2ccccc2)C(=O)N1c1ccc(Cl)cn1` (configuration not stated), the lipid storage change, negative = inhibition was inconclusive: 25.8%. For `CCOc1ccc(Cc2c(Cl)nc(SC)nc2N(C)C)cc1`, the lipid storage change, negative = inhibition was inconclusive: 18.7%. With `CCOC(=O)C(CCOc1cccc(CC)c1)C(=O)OCC` the lipid storage change, negative = inhibition was inconclusive: 91%. For `O=C(CSCc1ccccc1)Nc1ccc(S(=O)(=O)Nc2ncccn2)cc1`, the lipid storage change, negative = inhibition was inconclusive: -19.4%. In the case of `CC(C)Cn1c(N)c(C(=O)CSc2nccn2C)c(=O)n(C)c1=O`, the lipid storage change, negative = inhibition is reported as inconclusive: 56.9%. In the case of `CC1=C(C(=O)Nc2ccccc2)C(c2ccco2)C(C#N)=C(SCC(=O)OC(C)C)N1` (configuration not stated), the lipid storage change, negative = inhibition is reported as inconclusive: 22.8%. In the case of `Cc1occc1C(=O)N/N=C/C1=C(N2CCOCC2)C(=C\c2ccc(Cl)cc2Cl)/CC1`, the lipid storage change, negative = inhibition is reported as inconclusive: 9.19%. In the case of `O=[N+]([O-])c1cc(-c2nc(-c3ccncc3)no2)ccc1Cl`, the Potency is reported as inconclusive: 0.92 µM [falling, full curve, poor fit]. For `CC1C=CCC2C(=O)N(c3ccc(OC(=O)c4cccs4)cc3)C(=O)C12` (configuration not stated), the lipid storage change, negative = inhibition was inconclusive: 3.71%. In the case of `CC(C)CN(C(=O)COC(=O)C1c2ccccc2Oc2ccccc21)C1CCS(=O)(=O)C1` (configuration not stated), the Potency is reported as inconclusive: 6.51 µM [activator, single point]. With `CCCS(=O)(=O)N1CCN(C(=O)c2cccc(OC)c2)CC1` the lipid storage change, negative = inhibition was inconclusive: 16.1%. For `COc1ccc([C@@H]2C[C@@H](c3ccccc3)Oc3cc(C)cc(C)c32)cc1`, the Potency was inconclusive: 18.4 µM [activator, single point]. For `NC(=O)C(c1cccc(Cl)c1)c1ncc(C(F)(F)F)cc1Cl` (configuration not stated), the lipid storage change, negative = inhibition was inconclusive: 30.9%. For `O=[N+]([O-])c1cc(/C=N/O)ccc1N1CCCC1`, the lipid storage change, negative = inhibition was inconclusive: 7.87%. With `CC(=O)C1=C(C)OC(N)=C(C#N)C1c1cc2cccc(C)c2nc1Cl` (configuration not stated) the lipid storage change, negative = inhibition was inconclusive: -24.7%. For `O=C(CC1SC(=Nc2ccc(O)cc2)NC1=O)Nc1ccccc1` (configuration not stated), the lipid storage change, negative = inhibition was inconclusive: -6.14%. For `COc1ccc(C(=O)NC2CC2)cc1OC1CCN(Cc2cc(C)c(C)cc2C)CC1`, the lipid storage change, negative = inhibition was inconclusive: 34.5%. In the case of `Cc1cc(C(=O)Nc2ccc(CC(=O)O)cc2)c(C)o1`, the lipid storage change, negative = inhibition is reported as inconclusive: -4.51%. With `COc1ccccc1CNC(=O)C1CCC(=O)N(CCCc2ccccc2)C1` (configuration not stated) the lipid storage change, negative = inhibition was inconclusive: 27.2%. In the case of `CC(C)(C)NS(=O)(=O)CC12CCC(CC1=O)C2(C)C` (configuration not stated), the lipid storage change, negative = inhibition is reported as inconclusive: -18.8%. With `O=C(Nc1ccc(S(=O)(=O)Nc2cnc3ccccc3n2)cc1)c1cccc(OC(F)F)c1` the Potency was inconclusive: 5.17 µM [activator, single point]. With `CC(=O)Oc1ccc(N2C(=O)C3C4C=CC(CO)(O4)C3C2=O)cc1` (configuration not stated) the Potency was inconclusive: 29.1 µM [cytotoxic, single point]. In the case of `CN1C(=O)C(C(=O)Nc2ccccc2F)c2ccccc21` (configuration not stated), the Potency is reported as inconclusive: 13 µM [activator, partial curve, poor fit]. With `Cc1ccc(NC(=O)c2ccc(S(=O)(=O)Nc3c(C)n(C)n(-c4ccccc4)c3=O)cc2)nc1` the lipid storage change, negative = inhibition was inconclusive: -19.8%. With `COc1ccc2[nH]c(=O)c3c(c2c1)OC(C)(C)C=C3` the lipid storage change, negative = inhibition was inconclusive: -48.5%. For `O=C(Cc1nc2ccccc2[nH]1)N/N=C/c1ccccc1`, the lipid storage change, negative = inhibition was inconclusive: -2.49%. In the case of `CCOC(=O)N1CCC(NC(=O)c2ccc(NC(=O)C3CCCO3)cc2)CC1` (configuration not stated), the lipid storage change, negative = inhibition is reported as inconclusive: -18.6%. With `COc1ccc(-c2c(NC(C)=O)n(C)c3ccccc3c2=O)cc1` the lipid storage change, negative = inhibition was inconclusive: 13.9%. In the case of `CCCCCNC(=O)c1cccc(S(=O)(=O)N2CC3(C)CC2CC(C)(C)C3)c1` (configuration not stated), the Potency is reported as inconclusive: 4.61 µM [activator, full curve, poor fit]. In the case of `CCN(CC)S(=O)(=O)c1ccc(C(=O)OCC(=O)Nc2sc3c(c2C#N)CCCCC3)cc1`, the lipid storage change, negative = inhibition is reported as inconclusive: -1.5%. For `O=C(c1cccs1)N(Cc1ccc(Cl)cc1)C1CCS(=O)(=O)C1` (configuration not stated), the lipid storage change, negative = inhibition was inconclusive: -42.5%. For `COc1cccc(NC(=O)C2C3C=CC4(O3)C2C(=O)N(CCN2CCCCC2)C4C(=O)NC2CCCCC2C)c1` (configuration not stated), the Potency was active: 5.8 µM.
